In US20160058872A1, “IMIDE-BASED MODULATORS OF PROTEOLYSIS AND ASSOCIATED METHODS OF USE” (Arvinas, Inc., priority 2014, published 2016):
Some of these results come from one statement about several compounds together. For at least one compound, name, drawing or mass did not settle the structure.

The compounds below were run on TANK-binding kinase 1 (TBK1), estrogen receptor a (ERα), bromodomain-containing protein 4 (BRD4), androgen receptor (AR), and c-Myc (assay: Protein degradation bioassays of Table 1 (Western blot / ELISA)). Conditions: Table 1, categories D and E.
Assay type: cell-based

IC50, < 50 nM:
Cc1sc2c(c1C)C(c1ccc(Cl)cc1)=N[C@@H](CC(=O)Nc1cnc(-c3ccc(OCCCNc4cccc5c4C(=O)N(C4CCC(=O)NC4=O)C5=O)cc3)nc1)c1nnc(C)n1-2 (stereo partly drawn) [Compound 31, 2-[(9S)-7-(4-chlorophenyl)-4,5,13-trimethyl-3-thia-1,8,11,12-tetraazatricyclo[8.3.0.0^2,^6]trideca-2(6),4,7,10,12-pentaen-9-yl]-N-{2-[4-(3-{[2-(2,6-dioxopiperidin-3-yl)-1,3-dioxo-2,3-dihydro-1H-isoindol-4-yl]amino}propoxy)phenyl]pyrimidin-5-yl}acetamide]
Cc1sc2c(c1C)C(c1ccc(Cl)cc1)=N[C@H](CC(=O)Nc1ccc(OCCOCCOCCOCCNc3cccc4c3CN(C3CCC(=O)NC3=O)C4=O)cc1)c1nnc(C)n1-2 (stereo partly drawn) [Compound 35, 2-[(9R)-7-(4-chlorophenyl)-4,5,13-trimethyl-3-thia-1,8,11,12-tetraazatricyclo[8.3.0.0^2,^6]trideca-2(6),4,7,10,12-pentaen-9-yl]-N-[4-({1-[2-(2,6-dioxopiperidin-3-yl)-1-oxo-2,3-dihydro-1H-isoindol-4-yl]-4,7,10-trioxa-1-azadodecan-12-yl}oxy)phenyl]acetamide]
Cc1sc2c(c1C)C(c1ccc(Cl)cc1)=N[C@@H](CC(=O)Nc1ccc(OCCCCOCCCNc3cccc4c3C(=O)N(C3CCC(=O)NC3=O)C4=O)c(F)c1)c1nnc(C)n1-2 (stereo partly drawn) [Compound 34, 2-[(9S)-7-(4-chlorophenyl)-4,5,13-trimethyl-3-thia-1,8,11,12-tetraazatricyclo[8.3.0.0^2,^6]trideca-2(6),4,7,10,12-pentaen-9-yl]-N-{4-[4-(3-{[2-(2,6-dioxopiperidin-3-yl)-1,3-dioxo-2,3-dihydro-1H-isoindol-4-yl]amino}propoxy)butoxy]-3-fluorophenyl}acetamide]
Cc1sc2c(c1C)C(c1ccc(Cl)cc1)=N[C@@H](CC(=O)Nc1ccc(OCCCCOCCCNc3cccc4c3C(=O)N(C3CCC(=O)NC3=O)C4=O)cc1F)c1nnc(C)n1-2 (stereo partly drawn) [Compound 33, 2-[(9S)-7-(4-chlorophenyl)-4,5,13-trimethyl-3-thia-1,8,11,12-tetraazatricyclo[8.3.0.0^2,^6]trideca-2(6),4,7,10,12-pentaen-9-yl]-N-{4-[4-(3-{[2-(2,6-dioxopiperidin-3-yl)-1,3-dioxo-2,3-dihydro-1H-isoindol-4-yl]amino}propoxy)butoxy]-2-fluorophenyl}acetamide]
Cc1sc2c(c1C)C(c1ccc(Cl)cc1)=N[C@@H](CC(=O)Nc1ccc(OCCCOCCNc3cccc4c3C(=O)N(C3CCC(=O)NC3=O)C4=O)c(F)c1)c1nnc(C)n1-2 (stereo partly drawn) [Compound 32, 2-[(9S)-7-(4-chlorophenyl)-4,5,13-trimethyl-3-thia-1,8,11,12-tetraazatricyclo[8.3.0.0^2,^6]trideca-2(6),4,7,10,12-pentaen-9-yl]-N-{4-[3-(2-{[2-(2,6-dioxopiperidin-3-yl)-1,3-dioxo-2,3-dihydro-1H-isoindol-4-yl]amino}ethoxy)propoxy]-3-fluorophenyl}acetamide]
